# Some of these results come from one statement about several compounds together.
# Molecular target: T1, PP2C (Bos taurus, UniProt O62830)
# T1 construct: made in house; host or cells: E. coli
# T1 sequence (O62830 1-484): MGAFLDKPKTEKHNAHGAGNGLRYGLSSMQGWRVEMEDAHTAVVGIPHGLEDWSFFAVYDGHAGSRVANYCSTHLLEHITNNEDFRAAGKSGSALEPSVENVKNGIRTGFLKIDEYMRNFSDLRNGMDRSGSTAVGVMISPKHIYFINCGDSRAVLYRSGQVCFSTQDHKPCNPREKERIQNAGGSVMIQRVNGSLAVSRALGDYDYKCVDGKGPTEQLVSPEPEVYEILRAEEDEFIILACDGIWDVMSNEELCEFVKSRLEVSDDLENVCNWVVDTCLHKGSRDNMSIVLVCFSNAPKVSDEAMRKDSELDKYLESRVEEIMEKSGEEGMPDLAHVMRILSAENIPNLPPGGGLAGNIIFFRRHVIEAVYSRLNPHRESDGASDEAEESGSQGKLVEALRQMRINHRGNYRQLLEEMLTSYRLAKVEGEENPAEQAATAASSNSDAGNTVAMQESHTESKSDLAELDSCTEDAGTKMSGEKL
# Assay: PP2C activity in the presence of fatty acids ([32P]casein dephosphorylation)
# Assay type: biochemical, bovine
# Settings: PP2C activating fatty acids
smiles,measurement,value
CCCCCCCC/C=C\CCCCCCCC(=O)O [oleic acid],activation of PP2C,10- to 15 fold

# Source: patent US20040086495A1, “Method for the treatment of arteriosclerosis” (EUCRO EUROPEAN CONTRACT RESEARCH GMBH & CO. KG, priority 2002, published 2004)
